# Percent effect of library compounds

Chains of the proteins cited; added tags and fusions are not shown. Residues count along the entry.
UniProt Q8IDJ8, 1-583: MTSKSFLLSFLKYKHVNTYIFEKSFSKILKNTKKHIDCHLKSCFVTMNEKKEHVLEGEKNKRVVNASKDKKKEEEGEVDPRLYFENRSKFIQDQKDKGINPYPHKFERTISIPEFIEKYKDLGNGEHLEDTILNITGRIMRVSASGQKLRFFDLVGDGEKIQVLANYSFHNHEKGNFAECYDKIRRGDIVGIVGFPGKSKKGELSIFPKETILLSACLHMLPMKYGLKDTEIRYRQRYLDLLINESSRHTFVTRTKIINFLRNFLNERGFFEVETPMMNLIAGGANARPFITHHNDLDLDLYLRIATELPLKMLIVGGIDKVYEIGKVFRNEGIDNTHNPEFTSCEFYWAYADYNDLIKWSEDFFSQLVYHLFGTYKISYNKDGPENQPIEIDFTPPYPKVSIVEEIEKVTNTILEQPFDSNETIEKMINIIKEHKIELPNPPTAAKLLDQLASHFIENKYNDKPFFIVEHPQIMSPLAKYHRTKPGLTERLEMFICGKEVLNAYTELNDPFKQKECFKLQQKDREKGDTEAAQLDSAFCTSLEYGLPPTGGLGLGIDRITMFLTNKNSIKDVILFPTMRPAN

Measurements from “University of Dundee, Small-Polar-MMV Screening Library” (2021), ChEMBL document CHEMBL3988442.

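Enzyme assay of the cytosolic lysyl-tRNA synthetase in 384-well plates, read by luminescence. Target: Lysine-tRNA ligase, Plasmodium falciparum 3D7 (UniProt Q8IDJ8). Concentration: 30 µM. Higher reads as stronger inhibition, judged from the few compounds that gave an IC50. Size under these conditions: about 69,000 compounds, about 49 of them at 50% or above in at least one test.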

The filed quantity is “Percent Effect” (%).
The controls that fix the scale are not given in the record; negative values are as filed.
The compounds are a random part of those screened.

Cc1occc1C(=O)NCC(=O)NCCOc1ccc2c(c1)CCC2 gave 0.5597%.
Cc1n[nH]c2c1C(c1cc(F)cc(F)c1)SCC(=O)N2 (configuration not stated) gave 3.608%.
Cc1nc(CCNc2nc(N(C)C)nc3c2CCCC3)cc(=O)[nH]1 gave 7.484%.
Cn1cc(N2CC3(CCN(C(=O)c4cccn4C)CC3)OCC2=O)cn1 gave 0.8957%.
CCc1c(O)nc(SCC(=O)Nc2ccccc2)n(C(C)CC)c1=O (configuration not stated) gave 1.624%.
CS(=O)(=O)Cc1ccc(Cl)cc1NCc1cccc(F)c1F gave 4.421%.
CC(C)C(NC(=O)C1CCCC1)c1cc(O)nc(-c2cccnc2)n1 (configuration not stated) gave -0.2305%.
CCn1cc(CN2CCCCC2CCn2ccnc2C)cc1C#N (configuration not stated) gave 6.384%.
O=C(c1ccco1)N1C[C@H]2CCCN(Cc3ccc(F)cc3)[C@H]2C1 gave 2.134%.
Cn1cc(C(=O)N2CCO[C@@H]3CN(C4CCC4)C[C@@H]3C2)cn1 gave 2.493%.
Cc1c(NCCO)cccc1OC1CCCC1 gave 1.163%.
CC(C)(C)OC(=O)NC1CCCN(Cc2cccs2)C1 (configuration not stated) gave 0.8888%.
COc1ncnc2c1CCN(CC1CCOC1)CC2 (configuration not stated) gave -3.587%.
Cc1cc(-c2cc(S(=O)(=O)N3C[C@H](C4CC4)[C@@H](N)C3)c(C)s2)on1 gave 4.194%.
O=C(NCCN1CCOC1=O)c1cc(-c2ccccc2)on1 gave -1.32%.
CC(C)c1noc(C(C)N2CCN(CCO)CC2)n1 (configuration not stated) gave 1.71%.
O=C(Cc1cccnc1)NC1CCCN(CCCc2ccccc2)C1 (configuration not stated) gave 0.6629%.
Cn1cc(NC(=O)N2CCC(CN3CCCC3)CC2)ccc1=O gave 0.9846%.
Cc1cc(CCC(N)=O)cc(C2CCCN2Cc2ccnn2C)n1 (configuration not stated) gave 1.757%.
OC(COCc1cccs1)CSc1nnc2ccccn12 (configuration not stated) gave -0.2695%.
c1cnc2c(CN3CCCCC3c3ccncn3)cnn2c1 (configuration not stated) gave -0.3294%.
COc1ncc(CN2CC[C@@](C)(O)[C@H](Oc3cccc(F)c3)C2)cn1 gave 9.617%.
Cc1ccc(C(C(=O)O)N(C)CCN2CCOCC2)c(F)c1 (configuration not stated) gave -0.3622%.
CC(Cn1cccn1)NC(=O)NCc1ccc(C(N)=O)cc1 (configuration not stated) gave -2.059%.
COCCN1CCCC2(CCN(C(=O)c3cnc(O)cn3)C2)C1=O (configuration not stated) gave 3.812%.
O=C(C1CC(=O)N(c2n[nH]c3cc(Br)ccc23)C1)N1CCSCC1 (configuration not stated) gave 10.17%.
CN1CCOCC2(CCCN(C(=O)c3ccc(-n4cccc4)cc3)C2)C1 (configuration not stated) gave -1.583%.
CC(C)NC(=O)N1CCC2(CC1)NC(=O)[C@H]1CN(C(=O)N(C)C)C[C@H]12 gave 2.294%.
CC(C)(N)C(=O)N1CCCC1c1cncc(Oc2ccc(F)cc2)n1 (configuration not stated) gave 6.408%.
CCN1CCOC(CNCc2cnc(C(C)(C)C)s2)C1 (configuration not stated) gave -2.982%.
CN(Cc1nccn1CC(F)(F)F)C(=O)c1cccc(C#N)c1 gave 3.447%.
C=C(C)CN(CC)C(=O)Nc1ccccc1CN(C)C(C)=O gave 2.405%.
Cc1ccc2c(n1)N(CCn1cccn1)CCN(C(=O)CC1CC1)C2 gave 5.213%.
Cc1nc(C)n(CC2CCCN2CCOc2cccc(F)c2)n1 (configuration not stated) gave 1.237%.
CCOc1ccc(Cl)c(C(=O)NC)n1 gave -1.091%.

For reference, 3 entries once more:

{"structure": "O=C(c1ccco1)N1C[C@H]2CCCN(Cc3ccc(F)cc3)[C@H]2C1", "Percent Effect": 2.134}
{"structure": "CC(C)C(NC(=O)C1CCCC1)c1cc(O)nc(-c2cccnc2)n1", "stereo": "configuration not stated", "Percent Effect": -0.2305}
{"structure": "Cc1cc(-c2cc(S(=O)(=O)N3C[C@H](C4CC4)[C@@H](N)C3)c(C)s2)on1", "Percent Effect": 4.194}